Laboratory results reported in paper doi:10.1101/2025.03.09.642134.
Like-named read-outs stand apart in the source and are kept apart here. No constants are given. Whether binding was seen depends on the method and setting. In cells and extracts the contact can be indirect. Here binding means that the protein was enriched with, or labelled near, the bait; the list need not be complete.

What was measured:
Experiment in all cases: affinity purification with mass spectrometry
[1] = target: T1, NONO (paraspeckle core protein, DBHS family) (human (endogenous in A549)) (UniProt Q15233)
T1 sequence: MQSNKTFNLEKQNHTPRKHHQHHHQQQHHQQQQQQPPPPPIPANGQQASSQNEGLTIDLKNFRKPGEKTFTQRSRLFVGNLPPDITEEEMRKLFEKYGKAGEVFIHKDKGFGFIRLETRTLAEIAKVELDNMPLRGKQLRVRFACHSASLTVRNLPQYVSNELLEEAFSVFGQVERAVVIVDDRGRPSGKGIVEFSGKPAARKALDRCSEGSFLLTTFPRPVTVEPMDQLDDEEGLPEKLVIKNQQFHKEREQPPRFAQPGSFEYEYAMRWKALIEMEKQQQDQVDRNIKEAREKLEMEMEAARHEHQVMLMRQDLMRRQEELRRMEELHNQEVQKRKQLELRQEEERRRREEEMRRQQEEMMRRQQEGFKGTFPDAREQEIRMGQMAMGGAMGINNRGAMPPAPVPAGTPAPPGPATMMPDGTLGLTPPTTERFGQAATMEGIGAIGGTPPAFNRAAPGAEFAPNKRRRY

[2] = target: NP (influenza A virus nucleoprotein) (influenza A virus A/WSN/1933 (H1N1)) (UniProt P15682)
[3] = substrate: NP (influenza A virus nucleoprotein) (influenza A virus A/WSN/1933 (H1N1)) (UniProt P15682); remark: listed apart in the source

**Q.** For “NP (influenza A virus nucleoprotein) (from UniProt P15682 1-498)”, which binding [1] is on record?
**A.** binds

**Q.** For HNRNPK (from UniProt P61978 1-463), which binding [2] is on record?
**A.** binds

B1: MATR3 (protein, UniProt P43243 1-847)
chain: MSKSFQQSSLSRDSQGHGRDLSAAGIGLLAAATQSLSMPASLGRMNQGTARLASLMNLGMSSSLNQQGAHSALSSASTSSHNLQSIFNIGSRGPLPLSSQHRGDADQASNILASFGLSARDLDELSRYPEDKITPENLPQILLQLKRRRTEEGPTLSYGRDGRSATREPPYRVPRDDWEEKRHFRRDSFDDRGPSLNPVLDYDHGSRSQESGYYDRMDYEDDRLRDGERCRDDSFFGETSHNYHKFDSEYERMGRGPGPLQERSLFEKKRGAPPSSNIEDFHGLLPKGYPHLCSICDLPVHSNKEWSQHINGASHSRRCQLLLEIYPEWNPDNDTGHTMGDPFMLQQSTNPAPGILGPPPPSFHLGGPAVGPRGNLGAGNGNLQGPRHMQKGRVETSRVVHIMDFQRGKNLRYQLLQLVEPFGVISNHLILNKINEAFIEMATTEDAQAAVDYYTTTPALVFGKPVRVHLSQKYKRIKKPEGKPDQKFDQKQELGRVIHLSNLPHSGYSDSAVLKLAEPYGKIKNYILMRMKSQAFIEMETREDAMAMVDHCLKKALWFQGRCVKVDLSEKYKKLVLRIPNRGIDLLKKDKSRKRSYSPDGKESPSDKKSKTDGSQKTESSTEGKEQEEKSGEDGEKDTKDDQTEQEPNMLLESEDELLVDEEEAAALLESGSSVGDETDLANLGDVASDGKKEPSDKAVKKDGSASAAAKKKLKKVDKIEELDQENEAALENGIKNEENTEPGAESSENADDPNKDTSENADGQSDENKDDYTIPDEYRIGPYQPNVPVGIDYVIPKTGFYCKLCSLFYTNEEVAKNTHCSSLPHYQKLKKFLNKLAEERRQKKET
**Q.** B1 was tested. Which binding [3] did it give?
**A.** binds
